Test results published in PMC3887180.
Results are given in words; binding and its absence hold for the method and conditions named. In cells and extracts the contact can be indirect. Some binding calls cover weakened binding; strength is not graded here. For some of these results: Sequences can lack the tags named with a protein. Blank lines part the entries; values can stand above or below the molecule they belong to.

By UniProt entry, the sequences of proteins in these tests, tags left out. Where a name states a change or a piece, a line headed by the entry shows the natural chain unless it says otherwise. Residues count along the entry.
UniProt P32121: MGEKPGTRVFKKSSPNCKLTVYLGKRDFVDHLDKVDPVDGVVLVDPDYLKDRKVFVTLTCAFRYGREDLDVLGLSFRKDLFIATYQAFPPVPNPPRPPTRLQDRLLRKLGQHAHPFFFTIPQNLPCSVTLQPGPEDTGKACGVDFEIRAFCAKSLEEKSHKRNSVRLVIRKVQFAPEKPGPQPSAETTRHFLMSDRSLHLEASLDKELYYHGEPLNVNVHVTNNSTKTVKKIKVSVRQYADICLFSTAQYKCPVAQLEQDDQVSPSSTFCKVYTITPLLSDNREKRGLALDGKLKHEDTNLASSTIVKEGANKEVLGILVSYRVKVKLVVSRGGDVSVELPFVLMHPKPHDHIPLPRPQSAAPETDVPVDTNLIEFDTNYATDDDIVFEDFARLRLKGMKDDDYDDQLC
FLAG-β-arrestin2 (amino acids 163–300): residues 163-300 of P32121

Tests used:
FLAG-Amer1 = target: T1, FLAG-Amer1 (UniProt Q5JTC6); test: co-IP; overexpressed tagged proteins in HEK293T; Nonidet P-40 lysis buffer (50 mM Tris pH 7.4, 150 mM NaCl, 1 mM EDTA, 0.5% Nonidet P-40), 4 °C, anti-tag antibody and protein G-Sepharose overnight, six washes; Western blot; in Fig. 7A, B with PI4KIIα siRNA or overexpressed PI4KIIα or PIP5KIβ
T1 sequence: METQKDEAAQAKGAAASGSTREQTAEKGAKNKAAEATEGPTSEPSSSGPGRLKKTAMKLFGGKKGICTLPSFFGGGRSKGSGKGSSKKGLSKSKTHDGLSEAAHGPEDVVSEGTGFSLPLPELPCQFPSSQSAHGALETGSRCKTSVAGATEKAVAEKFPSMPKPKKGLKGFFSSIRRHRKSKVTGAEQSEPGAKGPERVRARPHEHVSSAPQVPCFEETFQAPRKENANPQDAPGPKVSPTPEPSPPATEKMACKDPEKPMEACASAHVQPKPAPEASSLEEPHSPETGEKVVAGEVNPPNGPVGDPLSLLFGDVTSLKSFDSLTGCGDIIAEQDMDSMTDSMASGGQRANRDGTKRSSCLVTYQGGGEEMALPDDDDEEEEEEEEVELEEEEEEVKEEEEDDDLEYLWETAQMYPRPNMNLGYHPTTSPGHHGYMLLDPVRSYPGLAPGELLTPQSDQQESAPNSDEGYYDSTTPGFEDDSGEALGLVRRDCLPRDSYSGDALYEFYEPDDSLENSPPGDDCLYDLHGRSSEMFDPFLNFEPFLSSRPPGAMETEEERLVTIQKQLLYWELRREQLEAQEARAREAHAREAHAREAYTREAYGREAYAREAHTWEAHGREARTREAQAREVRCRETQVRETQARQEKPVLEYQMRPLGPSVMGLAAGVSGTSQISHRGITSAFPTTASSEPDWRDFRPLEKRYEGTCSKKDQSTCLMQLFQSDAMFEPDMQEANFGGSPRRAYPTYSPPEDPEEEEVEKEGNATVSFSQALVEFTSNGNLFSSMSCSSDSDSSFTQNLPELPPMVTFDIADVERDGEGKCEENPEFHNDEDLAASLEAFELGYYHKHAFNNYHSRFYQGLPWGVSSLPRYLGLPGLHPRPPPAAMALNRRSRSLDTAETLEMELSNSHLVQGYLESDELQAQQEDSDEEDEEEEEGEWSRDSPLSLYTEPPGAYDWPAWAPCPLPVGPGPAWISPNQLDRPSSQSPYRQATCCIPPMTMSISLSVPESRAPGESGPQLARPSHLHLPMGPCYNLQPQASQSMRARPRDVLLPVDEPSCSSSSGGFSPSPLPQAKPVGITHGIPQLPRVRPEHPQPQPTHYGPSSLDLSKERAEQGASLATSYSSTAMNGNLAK

FLAG-β-arrestin2 = FLAG-β-arrestin2 (UniProt P32121); test: as above
[1] = target: FLAG-β-arrestin2 (amino acids 163–300) (UniProt P32121); test: as above
[2] = target: endogenous β-arrestin2 (NB4 cells) (human (endogenous in NB4)) (UniProt P32121); test: co-IP; endogenous proteins of NB4 cells (cytoplasmic fraction in Fig. 6C; cells with Wnt3a or control CM for 2 h); precipitation with anti-β-arrestin antibodies A1CT and A2CT, protein G-Sepharose, 4 °C; Western blot

binding (FLAG-Amer1): binds
Molecule: HA-β-arrestin2 (from UniProt P32121 1-409)

binding (FLAG-β-arrestin2): binds
binding [1]: binds
B1: full-length Amer1 (Fig. 1D, Fig. 7B; tag not told for these panels) (protein, UniProt Q5JTC6 1-1135)
chain: METQKDEAAQAKGAAASGSTREQTAEKGAKNKAAEATEGPTSEPSSSGPGRLKKTAMKLFGGKKGICTLPSFFGGGRSKGSGKGSSKKGLSKSKTHDGLSEAAHGPEDVVSEGTGFSLPLPELPCQFPSSQSAHGALETGSRCKTSVAGATEKAVAEKFPSMPKPKKGLKGFFSSIRRHRKSKVTGAEQSEPGAKGPERVRARPHEHVSSAPQVPCFEETFQAPRKENANPQDAPGPKVSPTPEPSPPATEKMACKDPEKPMEACASAHVQPKPAPEASSLEEPHSPETGEKVVAGEVNPPNGPVGDPLSLLFGDVTSLKSFDSLTGCGDIIAEQDMDSMTDSMASGGQRANRDGTKRSSCLVTYQGGGEEMALPDDDDEEEEEEEEVELEEEEEEVKEEEEDDDLEYLWETAQMYPRPNMNLGYHPTTSPGHHGYMLLDPVRSYPGLAPGELLTPQSDQQESAPNSDEGYYDSTTPGFEDDSGEALGLVRRDCLPRDSYSGDALYEFYEPDDSLENSPPGDDCLYDLHGRSSEMFDPFLNFEPFLSSRPPGAMETEEERLVTIQKQLLYWELRREQLEAQEARAREAHAREAHAREAYTREAYGREAYAREAHTWEAHGREARTREAQAREVRCRETQVRETQARQEKPVLEYQMRPLGPSVMGLAAGVSGTSQISHRGITSAFPTTASSEPDWRDFRPLEKRYEGTCSKKDQSTCLMQLFQSDAMFEPDMQEANFGGSPRRAYPTYSPPEDPEEEEVEKEGNATVSFSQALVEFTSNGNLFSSMSCSSDSDSSFTQNLPELPPMVTFDIADVERDGEGKCEENPEFHNDEDLAASLEAFELGYYHKHAFNNYHSRFYQGLPWGVSSLPRYLGLPGLHPRPPPAAMALNRRSRSLDTAETLEMELSNSHLVQGYLESDELQAQQEDSDEEDEEEEEGEWSRDSPLSLYTEPPGAYDWPAWAPCPLPVGPGPAWISPNQLDRPSSQSPYRQATCCIPPMTMSISLSVPESRAPGESGPQLARPSHLHLPMGPCYNLQPQASQSMRARPRDVLLPVDEPSCSSSSGGFSPSPLPQAKPVGITHGIPQLPRVRPEHPQPQPTHYGPSSLDLSKERAEQGASLATSYSSTAMNGNLAK

binding [2]: binds
B2: endogenous Amer1 (NB4 cells) (protein, UniProt Q5JTC6 1-1135)
chain: METQKDEAAQAKGAAASGSTREQTAEKGAKNKAAEATEGPTSEPSSSGPGRLKKTAMKLFGGKKGICTLPSFFGGGRSKGSGKGSSKKGLSKSKTHDGLSEAAHGPEDVVSEGTGFSLPLPELPCQFPSSQSAHGALETGSRCKTSVAGATEKAVAEKFPSMPKPKKGLKGFFSSIRRHRKSKVTGAEQSEPGAKGPERVRARPHEHVSSAPQVPCFEETFQAPRKENANPQDAPGPKVSPTPEPSPPATEKMACKDPEKPMEACASAHVQPKPAPEASSLEEPHSPETGEKVVAGEVNPPNGPVGDPLSLLFGDVTSLKSFDSLTGCGDIIAEQDMDSMTDSMASGGQRANRDGTKRSSCLVTYQGGGEEMALPDDDDEEEEEEEEVELEEEEEEVKEEEEDDDLEYLWETAQMYPRPNMNLGYHPTTSPGHHGYMLLDPVRSYPGLAPGELLTPQSDQQESAPNSDEGYYDSTTPGFEDDSGEALGLVRRDCLPRDSYSGDALYEFYEPDDSLENSPPGDDCLYDLHGRSSEMFDPFLNFEPFLSSRPPGAMETEEERLVTIQKQLLYWELRREQLEAQEARAREAHAREAHAREAYTREAYGREAYAREAHTWEAHGREARTREAQAREVRCRETQVRETQARQEKPVLEYQMRPLGPSVMGLAAGVSGTSQISHRGITSAFPTTASSEPDWRDFRPLEKRYEGTCSKKDQSTCLMQLFQSDAMFEPDMQEANFGGSPRRAYPTYSPPEDPEEEEVEKEGNATVSFSQALVEFTSNGNLFSSMSCSSDSDSSFTQNLPELPPMVTFDIADVERDGEGKCEENPEFHNDEDLAASLEAFELGYYHKHAFNNYHSRFYQGLPWGVSSLPRYLGLPGLHPRPPPAAMALNRRSRSLDTAETLEMELSNSHLVQGYLESDELQAQQEDSDEEDEEEEEGEWSRDSPLSLYTEPPGAYDWPAWAPCPLPVGPGPAWISPNQLDRPSSQSPYRQATCCIPPMTMSISLSVPESRAPGESGPQLARPSHLHLPMGPCYNLQPQASQSMRARPRDVLLPVDEPSCSSSSGGFSPSPLPQAKPVGITHGIPQLPRVRPEHPQPQPTHYGPSSLDLSKERAEQGASLATSYSSTAMNGNLAK
